The record followed here is patent US20260234269A1.

The chains behind the UniProt entries cited, without tags or fusion partners. Where a name states a change or a piece, a line headed by the entry shows the natural chain unless it says otherwise.
UniProt P17931: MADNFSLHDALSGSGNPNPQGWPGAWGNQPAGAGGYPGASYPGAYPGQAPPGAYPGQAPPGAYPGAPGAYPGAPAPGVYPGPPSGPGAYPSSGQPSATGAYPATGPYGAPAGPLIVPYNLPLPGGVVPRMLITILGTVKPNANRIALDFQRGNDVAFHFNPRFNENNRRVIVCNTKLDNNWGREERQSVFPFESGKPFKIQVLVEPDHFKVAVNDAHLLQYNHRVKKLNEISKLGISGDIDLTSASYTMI
UniProt Q8TDQ0: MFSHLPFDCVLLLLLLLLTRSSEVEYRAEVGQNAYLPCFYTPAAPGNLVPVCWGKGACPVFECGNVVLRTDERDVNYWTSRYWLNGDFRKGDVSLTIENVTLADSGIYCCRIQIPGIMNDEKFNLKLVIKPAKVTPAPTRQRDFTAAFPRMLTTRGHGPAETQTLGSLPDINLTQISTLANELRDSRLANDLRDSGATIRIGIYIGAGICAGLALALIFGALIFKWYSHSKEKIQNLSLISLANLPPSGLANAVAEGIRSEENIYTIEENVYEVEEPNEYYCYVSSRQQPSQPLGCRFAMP

No constants are given. Whether binding was seen depends on the method and setting. Binding seen in cells or lysates may run through a third protein. Some results given as binding are weak or reduced against the parent protein; the word gives no strength.

The assay addresses Flag-tagged human Gal3 expressed in 293T cells (human) (UniProt P17931). Put plainly: pull-down, Fc protein coated plate, protein G beads, anti-Flag blot.

Consider “human TIM-3 Fc (hTIM-3 extracellular domain fused with the Fc portion of hIgG) (from UniProt Q8TDQ0 22-202) (Fc fusion)”, for which the binding result is listed as “binds”.
